In test [1] the target is LexA-INI1 fusion protein (wild-type INI1/hSNF5) (human) (UniProt Q12824). The experiment in a line: two-hybrid; yeast; LexA DNA-binding domain fusions of INI1 or SID-INI1 mutants against GAL4 activation domain fusions; LacZ reporter, X-Gal assay, strength by the time of appearance of the blue color.
Test [2] addresses LexA-SID-INI1-D (clone D6, N152S R242I) (human) (UniProt Q12824). Described as above.
The target of another test is T1, GST-SAP18 (UniProt O00422).
T1 sequence: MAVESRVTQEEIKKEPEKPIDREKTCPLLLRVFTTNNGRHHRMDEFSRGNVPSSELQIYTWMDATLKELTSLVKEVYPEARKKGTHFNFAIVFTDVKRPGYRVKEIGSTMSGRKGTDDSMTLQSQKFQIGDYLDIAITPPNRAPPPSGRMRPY
The experiment in a line: pull-down; 6His-tagged INI1 or SID-INI1 mutants expressed in bacteria, GST-SAP18 immobilized onto glutathione agarose beads; bound protein detected by immunoblot with anti-6His antibody.

Protein sequences, listed by entry. Tags and fused reporters are not part of them. Lines headed by an entry give the natural chain unless they say otherwise; changes in a name come on top.
UniProt Q12824: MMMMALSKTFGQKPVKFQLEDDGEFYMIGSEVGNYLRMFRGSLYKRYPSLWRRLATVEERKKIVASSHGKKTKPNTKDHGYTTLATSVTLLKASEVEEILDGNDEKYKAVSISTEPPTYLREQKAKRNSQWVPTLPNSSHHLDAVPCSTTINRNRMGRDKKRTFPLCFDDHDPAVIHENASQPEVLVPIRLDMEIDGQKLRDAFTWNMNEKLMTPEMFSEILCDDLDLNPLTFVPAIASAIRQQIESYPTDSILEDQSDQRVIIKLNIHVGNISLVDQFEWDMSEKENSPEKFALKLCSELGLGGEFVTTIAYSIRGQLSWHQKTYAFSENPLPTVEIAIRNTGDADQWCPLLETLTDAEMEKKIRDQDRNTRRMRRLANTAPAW

The values that follow come from publication PMC5068538.

No constants are given. Whether binding was seen depends on the method and setting. For some of these results: Binding seen in cells or lysates may run through a third protein. Some binding calls cover weakened binding; strength is not graded here. For some of these results: Where a sequence is shown, tags or fusion partners need not be part of it.

For “GAL4 activation domain fused to INI1 (GAL4AC-INI1) (from UniProt Q12824 1-385)”, the binding result in test [1] and in test [2] was “binds” in each case. “6His-INI1 (wild type) (from UniProt Q12824 1-385)”: the binding result with GST-SAP18 was “binds”.

B1: GAL4 activation domain fused to SAP18 (GAL4AC-SAP18) (protein, UniProt O00422 1-153)
chain: MAVESRVTQEEIKKEPEKPIDREKTCPLLLRVFTTNNGRHHRMDEFSRGNVPSSELQIYTWMDATLKELTSLVKEVYPEARKKGTHFNFAIVFTDVKRPGYRVKEIGSTMSGRKGTDDSMTLQSQKFQIGDYLDIAITPPNRAPPPSGRMRPY
For B1, in test [1], the binding entry was “binds”.
